# Assay results reported in the supplement of paper PMC4604168 (melanoma cell lines).
# Some of the results follow. Repeats are few or missing, and single values can be far off.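 The apoptosis fraction was the count of cleaved-PARP antibody-stained nuclei relative to all DNA-stained nuclei, imaged in 1,536-well plates. Screening doses were set so most cells survived, and baseline and induced cleaved-PARP levels vary greatly across cell lines.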
# Key:
# Assay in all cases: cleaved PARP positive nuclei fraction relative to DMSO control; melanoma cells; higher = more apoptosis
# Details in all cases: library dose: low library concentration; 72 h
# 501Mel = system: 501Mel
# A101D = system: A101D
# A2058 = system: A2058
# A375 = system: A375
# C32 = system: C32
# CBRC008 = system: CBRC008 (line from a melanoma biopsy)
# CBRC014 = system: CBRC014 (line from a melanoma biopsy)
# CBRC016 = system: CBRC016 (line from a melanoma biopsy)
# CBRC017 = system: CBRC017 (line from a melanoma biopsy)
# CBRC034 = system: CBRC034 (line from a melanoma biopsy)
# COLO792 = system: COLO792
# COLO800 = system: COLO800
# COLO829 = system: COLO829
# G361 = system: G361
# IPC-298 = system: IPC-298
# IST-MEL1 = system: IST-MEL1
# LB2518-MEL = system: LB2518-MEL
# LOXIMVI = system: LOXIMVI
# MEL-HO = system: MEL-HO
Structure (SMILES),cleaved PARP positive nuclei fraction (501Mel) [%],cleaved PARP positive nuclei fraction (A101D) [%],cleaved PARP positive nuclei fraction (A2058) [%],cleaved PARP positive nuclei fraction (A375) [%],cleaved PARP positive nuclei fraction (C32) [%],cleaved PARP positive nuclei fraction (CBRC008) [%],cleaved PARP positive nuclei fraction (CBRC014) [%],cleaved PARP positive nuclei fraction (CBRC016) [%],cleaved PARP positive nuclei fraction (CBRC017) [%],cleaved PARP positive nuclei fraction (CBRC034) [%],cleaved PARP positive nuclei fraction (COLO792) [%],cleaved PARP positive nuclei fraction (COLO800) [%],cleaved PARP positive nuclei fraction (COLO829) [%],cleaved PARP positive nuclei fraction (G361) [%],cleaved PARP positive nuclei fraction (IPC-298) [%],cleaved PARP positive nuclei fraction (IST-MEL1) [%],cleaved PARP positive nuclei fraction (LB2518-MEL) [%],cleaved PARP positive nuclei fraction (LOXIMVI) [%],cleaved PARP positive nuclei fraction (MEL-HO) [%]
"O=c1[nH]nc(Sc2ncc([N+](=O)[O-])s2)n1-c1ccc2c(c1)OCCO2 + O=C(O)[C@@H]1[O][Sb](=[O])([O][Sb]2(=[O])[O][C@H]([C@H](O)CO)[C@H](O)[C@H](C(=O)O)[O]2)[O][C@H]([C@H](O)CO)[C@@H]1O [stibogluconate] (first compound 0.2 µM, partner dose 2 µM)",94.6,92.3,121,128,73.5,91.1,99.9,108,89.2,62.4,55.9,109,167,93.3,81.4,33,79.8,53.4,51.5
"N#CC[C@H](C1CCCC1)n1cc(-c2ncnc3[nH]ccc23)cn1 [ruxolitinib] + C=CCNC1=C2C[C@@H](C)C[C@H](OC)[C@H](O)[C@@H](C)/C=C(\C)[C@H](OC(N)=O)[C@@H](OC)/C=C\C=C(/C)C(=O)NC(=CC1=O)C2=O [Tanespimycin] (first compound 1 µM, partner dose 0.002 µM)",142,130,321,78.7,89.3,158,125,76.4,115,73.5,99.4,103,58.1,183,112,130,93.8,131,89.4
"N#CC[C@H](C1CCCC1)n1cc(-c2ncnc3[nH]ccc23)cn1 [ruxolitinib] + Cn1cnc2c(F)c(Nc3ccc(Br)cc3Cl)c(C(=O)NOCCO)cc21 [selumetinib] (first compound 1 µM, partner dose 0.015 µM)",78,83.5,186,71.8,149,60.8,83.7,153,173,179,75.5,64.3,52.4,72.7,93.1,85.5,128,106,159
"Cc1cc(Nc2cc(N3CCN(C)CC3)nc(Sc3ccc(NC(=O)C4CC4)cc3)n2)n[nH]1 [Tozasertib] + Cn1sc(=O)n(Cc2ccccc2)c1=O [TDZD-8] (first compound 0.006 µM, partner dose 0.4 µM)",55.8,91.5,113,69.8,202,70.1,682,89.5,100,274,121,32.3,193,80,130,64,109,256,162
"CC[C@]1(O)C[C@H]2CN(CCc3c([nH]c4ccccc34)[C@@](C(=O)OC)(c3cc4c(cc3OC)N(C=O)[C@H]3[C@@](O)(C(=O)OC)[C@H](OC(C)=O)[C@]5(CC)C=CCN6CC[C@]43[C@@H]65)C2)C1 [vincristine] + NC1(c2ccc(-c3nc4ccn5c(=O)[nH]nc5c4cc3-c3ccccc3)cc2)CCC1 [MK2206] (first compound 0.0001 µM, partner dose 0.4 µM)",93.1,283,671,315,137,164,88.1,125,104,59.9,158,179,145,96.1,168,68.3,84.1,237,116
"CCCCCCCCCCCCCCCCCCOP(=O)([O-])OC1CC[N+](C)(C)CC1 [Perifosine] + Cn1nnc2c(C(N)=O)ncn2c1=O [temozolomide] (first compound 0.4 µM, partner dose 2 µM)",69.1,43.9,98.3,110,76.4,132,114,84.3,111,32.1,58.8,104,119,57.3,88.9,130,49.3,219,81
"Cc1cc(Nc2cc(N3CCN(C)CC3)nc(Sc3ccc(NC(=O)C4CC4)cc3)n2)n[nH]1 [Tozasertib] + O=C(/C=C/c1cccnc1)NCCCCC1CCN(C(=O)c2ccccc2)CC1 [FK866] (first compound 0.006 µM, partner dose 0.01 µM)",39.8,155,57.5,192,89.1,5380,88.8,990,419,2850,341,102,165,1230,601,172,51.5,50.6,296
"CCCCCCCCCCCCCCCCCCOP(=O)([O-])OC1CC[N+](C)(C)CC1 [Perifosine] + CCN(CC)CCNC(=O)c1c(C)[nH]c(/C=C2\C(=O)Nc3ccc(F)cc32)c1C [sunitinib] (first compound 0.4 µM, partner dose 0.4 µM)",369,51.1,61.2,94.4,80.6,48.3,106,72.1,138,115,109,126,111,43.5,43.6,86.3,191,81.1,105
"Cc1ccc(Nc2nccc(N(C)c3ccc4c(C)n(C)nc4c3)n2)cc1S(N)(=O)=O [Pazopanib] + CS(=O)(=O)CCNCc1ccc(-c2ccc3ncnc(Nc4ccc(OCc5cccc(F)c5)c(Cl)c4)c3c2)o1 [lapatinib] (first compound 0.4 µM, partner dose 0.8 µM)",312,54.3,143,77.8,76.6,182,96.1,184,143,62.7,97.6,116,123,137,137,114,92.9,121,62.8
"CCCCCCCCCCCCCCCCCCOP(=O)([O-])OC1CC[N+](C)(C)CC1 [Perifosine] + Cn1c(Nc2ccc(C(F)(F)F)cc2)nc2cc(Oc3ccnc(-c4ncc(C(F)(F)F)[nH]4)c3)ccc21 [CHIR265] (first compound 0.4 µM, partner dose 0.08 µM)",260,53.7,166,295,90.4,57.1,108,119,87.9,54.7,162,43,113,205,77.6,68.7,511,113,171
"Cc1cc(Nc2cc(N3CCN(C)CC3)nc(Sc3ccc(NC(=O)C4CC4)cc3)n2)n[nH]1 [Tozasertib] + Cn1nnc2c(C(N)=O)ncn2c1=O [temozolomide] (first compound 0.006 µM, partner dose 2 µM)",78.2,49.8,98.3,75.6,87.4,106,132,116,92.5,98.4,87.2,323,78.7,127,121,73.5,66.9,289,50.4
"Cc1ccc(Nc2nccc(N(C)c3ccc4c(C)n(C)nc4c3)n2)cc1S(N)(=O)=O [Pazopanib] + O=C(O)c1ccc2c(c1)nc(Nc1cccc(Cl)c1)c1ccncc12 [CX4945] (first compound 0.4 µM, partner dose 0.4 µM)",84.1,268,114,200,65.1,122,104,161,161,96.7,128,81.6,182,111,345,232,120,21.8,59.9
"O=c1[nH]nc(Sc2ncc([N+](=O)[O-])s2)n1-c1ccc2c(c1)OCCO2 + CC(=O)O[C@@]12CO[C@@H]1C[C@H](O)[C@@]1(C)C(=O)[C@H](O)C3=C(C)[C@@H](OC(=O)[C@H](O)[C@@H](NC(=O)OC(C)(C)C)c4ccccc4)C[C@@](O)([C@@H](OC(=O)c4ccccc4)[C@H]21)C3(C)C [Docetaxel] (first compound 0.2 µM, partner dose 0.0001 µM)",116,131,1890,1090,162,329,126,313,239,45.3,472,174,253,729,179,459,142,256,127
"Cc1ccc(Nc2nccc(N(C)c3ccc4c(C)n(C)nc4c3)n2)cc1S(N)(=O)=O [Pazopanib] + C#Cc1cccc(Nc2ncnc3cc(OCCOC)c(OCCOC)cc23)c1 [erlotinib] (first compound 0.4 µM, partner dose 0.8 µM)",70.1,50.5,125,96,72.9,312,107,204,113,37.2,138,99.3,69.2,162,115,138,66.4,55.1,204
"O=C(/C=C/c1cccnc1)NCCCCC1CCN(C(=O)c2ccccc2)CC1 + CC(=O)c1c(C)c2cnc(Nc3ccc(N4CCNCC4)cn3)nc2n(C2CCCC2)c1=O [palbociclib] (first compound 0.01 µM, partner dose 0.04 µM)",128,172,64.2,230,166,6370,93.3,1220,316,1420,325,260,234,3430,645,104,143,70.4,152
"Cc1cc(Nc2cc(N3CCN(C)CC3)nc(Sc3ccc(NC(=O)C4CC4)cc3)n2)n[nH]1 [Tozasertib] + Cn1c(=O)n(-c2ccc(C(C)(C)C#N)cc2)c2c3cc(-c4cnc5ccccc5c4)ccc3ncc21 [NVP-BEZ235] (first compound 0.006 µM, partner dose 0.004 µM)",97.1,99.6,139,88,143,52.8,99.1,90.8,73.5,60.8,72.4,86.9,50,56.1,131,141,98.5,149,40.6

# Whole records as entered above. Order of values: cleaved PARP positive nuclei fraction (501Mel) [%] | cleaved PARP positive nuclei fraction (A101D) [%] | cleaved PARP positive nuclei fraction (A2058) [%] | cleaved PARP positive nuclei fraction (A375) [%] | cleaved PARP positive nuclei fraction (C32) [%] | cleaved PARP positive nuclei fraction (CBRC008) [%] | cleaved PARP positive nuclei fraction (CBRC014) [%] | cleaved PARP positive nuclei fraction (CBRC016) [%] | cleaved PARP positive nuclei fraction (CBRC017) [%] | cleaved PARP positive nuclei fraction (CBRC034) [%] | cleaved PARP positive nuclei fraction (COLO792) [%] | cleaved PARP positive nuclei fraction (COLO800) [%] | cleaved PARP positive nuclei fraction (COLO829) [%] | cleaved PARP positive nuclei fraction (G361) [%] | cleaved PARP positive nuclei fraction (IPC-298) [%] | cleaved PARP positive nuclei fraction (IST-MEL1) [%] | cleaved PARP positive nuclei fraction (LB2518-MEL) [%] | cleaved PARP positive nuclei fraction (LOXIMVI) [%] | cleaved PARP positive nuclei fraction (MEL-HO) [%]
# Cc1cc(Nc2cc(N3CCN(C)CC3)nc(Sc3ccc(NC(=O)C4CC4)cc3)n2)n[nH]1 [Tozasertib] + Cn1nnc2c(C(N)=O)ncn2c1=O [temozolomide] (first compound 0.006 µM, partner dose 2 µM) is entered as 78.2 | 49.8 | 98.3 | 75.6 | 87.4 | 106 | 132 | 116 | 92.5 | 98.4 | 87.2 | 323 | 78.7 | 127 | 121 | 73.5 | 66.9 | 289 | 50.4
# CCCCCCCCCCCCCCCCCCOP(=O)([O-])OC1CC[N+](C)(C)CC1 [Perifosine] + Cn1nnc2c(C(N)=O)ncn2c1=O [temozolomide] (first compound 0.4 µM, partner dose 2 µM) is entered as 69.1 | 43.9 | 98.3 | 110 | 76.4 | 132 | 114 | 84.3 | 111 | 32.1 | 58.8 | 104 | 119 | 57.3 | 88.9 | 130 | 49.3 | 219 | 81
